From PubChem BioAssay AID743266 (National Center for Advancing Translational Sciences (NCATS), 2014)
The whole screen tested about 410,000 compounds, of which about 310 (0.076%) were called active. This list was built around the results that the source calls inconclusive (neither active nor inactive); the mix of calls is not that of the screen. Calls follow the shape of the dose curve; as a rule, active = well fitted activation curve with a large enough effect; inconclusive = small, poorly fitted or top-dose-only effect, or another doubt; inactive = no such curve, though single readings can be large or run the other way. Potencies beside an inconclusive call are fits to weak or partial responses and may not hold up.

Protein sequences, listed by entry. Tags and fused reporters are not part of them.
UniProt Q03431, whole entry, looked up: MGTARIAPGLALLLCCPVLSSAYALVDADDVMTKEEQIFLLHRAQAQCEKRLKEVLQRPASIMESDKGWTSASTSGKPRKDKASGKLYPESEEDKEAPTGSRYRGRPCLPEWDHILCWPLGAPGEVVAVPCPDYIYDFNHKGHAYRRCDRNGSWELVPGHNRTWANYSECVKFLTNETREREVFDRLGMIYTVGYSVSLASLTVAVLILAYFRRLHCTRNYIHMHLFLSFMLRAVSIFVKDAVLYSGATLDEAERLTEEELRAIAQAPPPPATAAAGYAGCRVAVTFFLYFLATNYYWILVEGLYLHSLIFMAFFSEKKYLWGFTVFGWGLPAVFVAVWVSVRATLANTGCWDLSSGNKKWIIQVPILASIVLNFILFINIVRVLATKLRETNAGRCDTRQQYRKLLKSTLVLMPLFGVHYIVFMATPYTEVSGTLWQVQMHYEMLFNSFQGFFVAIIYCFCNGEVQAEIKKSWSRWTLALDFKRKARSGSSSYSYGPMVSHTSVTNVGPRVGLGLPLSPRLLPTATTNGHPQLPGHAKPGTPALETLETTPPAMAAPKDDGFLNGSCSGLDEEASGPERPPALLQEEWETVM

These compounds were tested against Parathyroid hormone/parathyroid hormone-related peptide receptor (Homo sapiens) (UniProt Q03431) (assay: qHTS for PTHR1 Agonists: Primary Screen). Details: HEK293 GP2 PTHR1 cells, GloSensor cAMP luminescence, 1 h; activation: at 115 µM (top of the series) unless noted; series mostly up to 115 µM.
Method in brief: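 HEK-293-derived GP2 cells expressing PTHR1 and a GloSensor cAMP reporter, 3,000/well, plated overnight, given luciferin plus IBMX (each 0.5 mM as added) for 1 h at 37 °C, then compound for 1 h at 37 °C. Luminescence was read after 15 min at room temperature.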
Also: nearly all actives have a fitted effect of over 55% in size.
Potency is read from the fitted curve at half-maximal effect.

SMILES | activation | Potency | outcome
CCCCN1CCCCC1C(=O)Nc1c(C)cc(C)cc1C (centres undefined) | inconclusive: 59.3% [activator] [at 57.5 µM] | – | –
COC(=O)CSc1nnc(CNC(=O)c2ccccc2F)n1-c1ccc(F)cc1 | inconclusive: 30.1% [activator] | – | –
C=CCn1c(O)c(C2=c3ccccc3=NC2=O)c2ccccc21 | inactive: -44.7% | – | –
Cc1cc(C)c(C)c(S(=O)(=O)NCc2ccc(C(=O)NCC3CCCO3)cc2)c1C (centres undefined) | – | inconclusive: 5.62 µM [activator, full curve, poor fit] | –
CCOC(=O)C1=C(COC(=O)Cc2c(F)cccc2Cl)NC(=O)NC1C (centres undefined) | – | inconclusive: 6.31 µM [activator, full curve, poor fit] | –
O=C(NNS(=O)(=O)c1ccc(Cl)cc1)c1cccs1 | – | inconclusive: 141 µM [activator, single point] | –
CCOc1ccc(C(=O)Nc2cc(-c3nc4ccccc4[nH]3)ccc2Cl)cc1[N+](=O)[O-] | – | inconclusive: 50.1 µM [activator, partial curve, poor fit] | –
O=C(NC(c1ccccc1)c1ccccc1)N1CCN(CCO)CC1 | inconclusive: 15.9% [activator] | – | –
CC(C)(C)c1ccc(OCCC(=O)Nc2cccc(S(=O)(=O)N3CCCC3)c2)cc1 | inactive: -22.2% | – | –
COc1ccc(OCC(O)Cn2ccnc2C)cc1 (centres undefined) | – | active: 10 µM | –
C#Cc1ccc(CN2CCN(CCc3ccccc3)C(CCO)C2)cc1 (centres undefined) | – | inconclusive: 89.1 µM [activator, partial curve, poor fit] | –
COC(=O)c1cc(C)nc2c1c(=O)nc(SCc1cccc(C(F)(F)F)c1)n2C1CC1 | – | inconclusive: 15.8 µM [activator, partial curve, poor fit] | –
C=CCn1c(C)cc(C(=O)CSc2nc3ccccc3c(=O)[nH]2)c1C | inactive: -18.9% [at 57.5 µM] | – | –
Cc1cc(=O)oc2c3c(cc(OCC(=O)NC(Cc4ccc(Cl)cc4)C(=O)O)c12)OC(C)(C)CC3 (centres undefined) | – | inconclusive: 70.8 µM [activator, single point] | –
CCCn1nnnc1NCc1ccc(N(C)C)cc1 | inconclusive: -61.1% [activator] | – | –
CC1(C(=O)Nc2cccc3c2CCCC3)CCN1C(=O)C1(c2ccc(Cl)cc2)CC1 (centres undefined) | – | – | inactive
COc1cccc(CNn2c(-c3cccc(C)c3)nc3ccccc3c2=O)c1 | – | – | inactive [at 57.5 µM]
COC(=O)CSc1nnc(-c2cccc(O)c2)o1 | – | – | inactive
Cc1cc(C)cc(NC(=O)NCc2ccccn2)c1 | – | inconclusive: 126 µM [activator, single point] | –
COCCN(C)Cc1cn(-c2ccc(F)cc2F)nc1-c1ccccc1C | inconclusive: 34.5% [activator] | – | –
COc1ccc(-c2cc(C(F)(F)F)n3nc(C(=O)Nc4cccc(Cl)c4Cl)cc3n2)cc1OC | inconclusive: 63% [activator] | – | –
FC(F)(F)c1cnc(NNC(=S)Nc2cccnc2)c(Cl)c1 | inactive: -6.88% | – | –
CC(=O)Nc1cccc(C(=O)OCC(=O)N(c2ccccc2)C2CCS(=O)(=O)C2)c1 (centres undefined) | inconclusive: 33.1% [activator] | – | –
COc1cccc(CNC(=O)Nc2ccc3c(c2)N(C)C(=O)c2ccccc2S3)c1 | inconclusive: -55.8% [activator] | – | –
CC(OC(=O)c1ccc(Cl)nc1)C(=O)N1CCc2ccccc21 (centres undefined) | – | inconclusive: 14.1 µM [activator, partial curve] | –

SMILES | activation | Potency | outcome
CC(=O)c1c(C)[nH]c(C(=O)OCc2csc(CC(=O)Nc3ccccc3C)n2)c1C | inactive: -31.8% | – | –
Nc1nc(SCc2ccccc2Cl)[nH]c(=O)c1-c1ccccc1 | inactive: -4.23% | – | –
O=C(O)c1cnn(-c2ccccc2)c1C(F)(F)F | – | inconclusive: 35.5 µM [activator, partial curve, poor fit] | –
COc1cc2c(cc1NC(=O)C(C)NCc1ccccc1)oc1ccccc12 (centres undefined) | inactive: -1.95% | – | –
Cc1cc(C)c(C#N)c(SCC(=O)OC2CCCCC2)n1 | – | inconclusive: 39.8 µM [activator, single point] | –
COc1ccc(-c2nnc3n2N=C(C)CS3)cc1 | – | – | inactive
Cn1c(CCN2CCCCC2)nc2cc(NS(=O)(=O)c3ccc(F)cc3)ccc21 | – | inconclusive: 3.55 µM [activator, full curve, poor fit] | –
COC(=O)c1ccccc1NC(=O)CSc1nccc(C)n1 | – | inconclusive: 10 µM [activator, partial curve, poor fit] | –
CC1CCCN(Cc2c(O)ccc3c(=O)c(Oc4ccccc4Cl)c(C(F)(F)F)oc23)C1 (centres undefined) | inactive: -25.5% | – | –
COc1ccc(CCNC(=O)CSc2ncc3c(n2)-c2cc(Cl)ccc2N(Cc2ccccc2)S3(=O)=O)cc1OC | – | inconclusive: 3.55 µM [activator, full curve, poor fit] | –
CCCCCCNS(=O)(=O)c1ccc(OC)c(OC)c1 | inactive: -12.3% | – | –
CCc1ccccc1NC(=O)Cn1c(=O)c2cccn2c2ccc(F)cc21 | – | inconclusive: 89.1 µM [activator, single point] | –
CCOC(=O)C1(CC2CC2)CCN(C(=O)c2ocnc2C)CC1 | – | inconclusive: 112 µM [activator, single point] | –
CCCOc1ccc(C(=O)N2CCN(Cc3ccc4c(c3)OCO4)CC2)cc1 | inactive: -31.5% | – | –
COc1ccc(C(=O)Nc2ccccc2-c2nnn(CC(=O)N3CCOCC3)n2)cc1 | inconclusive: -37% [activator] | – | –
NS(=O)(=O)c1ccc(NC(=S)NCc2ccc(Cl)cc2)cc1 | – | inconclusive: 3.55 µM [activator, partial curve, poor fit] | –
COCCN(CCOC)S(=O)(=O)c1ccc(NC(=O)c2cnccn2)cc1 | – | inconclusive: 39.8 µM [activator, partial curve, poor fit] | –
S=C(NCCN1CCOCC1)N/N=C/c1c2ccccc2cc2ccccc12 | inactive: -4.83% | – | –
CS(=O)(=O)Nc1cccc(C(=O)OCCCOc2ccc(F)cc2)c1 | inactive: -19.1% | – | –
COCCNC(=O)Cn1c(=O)n(Cc2ccc(C(=O)NCCc3ccc(OC)c(OC)c3)cc2)c(=O)c2ccccc21 | – | inconclusive: 50.1 µM [activator, partial curve, poor fit] | –
Cc1ccccc1-c1cc2nc(NCCN3CCNC3=O)n(C)c(=O)c2s1 | inconclusive: -14.5% [activator] | – | –
COc1ccccc1NC(=O)CN1CCC(C(=O)c2ccc(F)cc2)CC1 | inactive: -13.7% | – | –
CN(C)Cc1ccccc1Sc1cccc2ccccc12 | – | inconclusive: 126 µM [activator, single point] | –
COc1ccc(C(C)C)cc1S(=O)(=O)NCc1ccccn1 | – | inconclusive: 1.41 µM [activator, full curve, poor fit] | –
O=C(c1ccc(OC2CCN(C/C=C/c3ccc(F)cc3)CC2)cc1)N1CCCC1 | inactive: -63.3% | – | –

Two entries from above, tab-delimited:
SMILES	activation	Potency	outcome
COc1cc2c(cc1NC(=O)C(C)NCc1ccccc1)oc1ccccc12 (centres undefined)	inactive: -1.95%	–	–
COC(=O)c1ccccc1NC(=O)CSc1nccc(C)n1	–	inconclusive: 10 µM [activator, partial curve, poor fit]	–

Later entries:

SMILES | activation | Potency | outcome
Cc1ccc(Cl)cc1NC(=O)C[n+]1ccc(Cc2ccc([N+](=O)[O-])cc2)cc1 | – | inconclusive: 126 µM [activator, single point] | –
O=C(c1ccc(Cl)cc1)N1CCCCC1CCN1CCOCC1 (centres undefined) | inconclusive: 31.2% [activator] | – | –
CCn1c(=O)c2cc(C(=O)Nc3cc(C)c(Cl)cc3OC)sc2c2ccccc21 | – | – | inactive
CC(=O)Nc1ccc(-c2ccnc3c2CC(C)(C(=O)NCc2ccc(N(C)C)cc2)O3)cc1 (centres undefined) | – | inconclusive: 15.8 µM [activator, partial curve] | –
Cc1ccc(N(C(=O)Cn2nnc(-c3ccc(F)cc3)n2)C(C(=O)NC(C)(C)C)c2ccncc2)cc1 (centres undefined) | – | active: 44.7 µM | –
Cc1cccc(NCc2nc3ccccc3n2Cc2ccccc2)c1 | inactive: -2.12% [at 57.5 µM] | – | –
CN(C)c1ccc(C=C2C(=O)OC(C)(C)OC2=O)cc1 | inactive: -37.8% | – | –
CCc1nnc(NS(=O)(=O)c2ccc(NC(=S)NC(=O)/C=C/c3ccccc3)cc2)s1 | inactive: -28% | – | –
COC(=O)c1ccc(NCc2cc(O)ccc2O)cc1O | – | – | inactive
COC(=O)c1ccc(-c2ccco2)n1Cc1cc(C)ccc1C | – | inconclusive: 35.5 µM [activator, partial curve, poor fit] | –
Cc1cc(C)nc(NC(=S)NC(=O)c2ccccc2F)n1 | – | – | inactive
CC(=O)Nc1cccc2c1C(=O)N(c1ccc(C)cc1)C2=O | – | inconclusive: 3.55 µM [activator, single point] | –
CCOC(=O)C1CCN(c2nc(N)c3c(N)nc(SCC(=O)O)cc3c2C#N)CC1 | – | inconclusive: 50.1 µM [activator, partial curve, poor fit] | –
CCCCC1CCC(C(=O)Nc2ccccc2N2CCOCC2)CC1 (centres undefined) | inactive: -17.8% | – | –
Cc1ccc(C)c(S(=O)(=O)c2nnn3c2nc(N2CCOCC2)c2sccc23)c1 | inconclusive: 44.9% [activator] | – | –
CC(C)OCCCn1c(=O)c2ccccc2n2c(CCC(=O)O)nnc12 | inactive: -9.72% | – | –
O=C(Cn1nnc2ccccc2c1=O)NC1CCCc2ccccc21 (centres undefined) | – | inconclusive: 3.98 µM [activator, full curve, poor fit] | –
O=c1[nH][nH]c(C(F)(F)F)c1C=Nc1cccc(Cl)c1 | – | – | inactive [at 57.5 µM]
CCC(Sc1ccc2nnc(-c3cccnc3)n2n1)C(=O)OC (centres undefined) | – | inconclusive: 7.94 µM [activator, partial curve] | –
Cc1ccc(NC(=S)N/N=C2\CC3CC=CC23)c(C)c1 (centres undefined) | inconclusive: -91.2% [activator] | – | –
CCc1cc(C(=O)N2CCOCC2)c(NC2=NS(=O)(=O)c3ccccc32)s1 | – | – | inactive [at 57.5 µM]
Cc1ccc(Cl)cc1N1CCN(C(=S)NCc2ccco2)CC1 | inconclusive: -67.5% [activator] | – | –
COc1cc(OC)c(NC(C)C(=O)N2CCCC2)cc1Cl (centres undefined) | – | inconclusive: 14.1 µM [activator, full curve, poor fit] | –
COc1cc(/C=C2\S/C(=N/S(=O)(=O)Cc3ccccc3)NC2=O)c([N+](=O)[O-])cc1OC | inactive: -9.65% | – | –

Some of these compounds in order of SMILES length, falling.
SMILES | activation | Potency | outcome
Cc1ccc(N(C(=O)Cn2nnc(-c3ccc(F)cc3)n2)C(C(=O)NC(C)(C)C)c2ccncc2)cc1 (centres undefined) | – | active: 44.7 µM | –
COc1cc(/C=C2\S/C(=N/S(=O)(=O)Cc3ccccc3)NC2=O)c([N+](=O)[O-])cc1OC | inactive: -9.65% | – | –
CC(=O)Nc1ccc(-c2ccnc3c2CC(C)(C(=O)NCc2ccc(N(C)C)cc2)O3)cc1 (centres undefined) | – | inconclusive: 15.8 µM [activator, partial curve] | –
Cc1ccc(Cl)cc1NC(=O)C[n+]1ccc(Cc2ccc([N+](=O)[O-])cc2)cc1 | – | inconclusive: 126 µM [activator, single point] | –
CCOC(=O)C1CCN(c2nc(N)c3c(N)nc(SCC(=O)O)cc3c2C#N)CC1 | – | inconclusive: 50.1 µM [activator, partial curve, poor fit] | –
CCn1c(=O)c2cc(C(=O)Nc3cc(C)c(Cl)cc3OC)sc2c2ccccc21 | – | – | inactive
CCc1cc(C(=O)N2CCOCC2)c(NC2=NS(=O)(=O)c3ccccc32)s1 | – | – | inactive [at 57.5 µM]
CC(C)OCCCn1c(=O)c2ccccc2n2c(CCC(=O)O)nnc12 | inactive: -9.72% | – | –
O=c1[nH][nH]c(C(F)(F)F)c1C=Nc1cccc(Cl)c1 | – | – | inactive [at 57.5 µM]
CC(=O)Nc1cccc2c1C(=O)N(c1ccc(C)cc1)C2=O | – | inconclusive: 3.55 µM [activator, single point] | –
O=C(Cn1nnc2ccccc2c1=O)NC1CCCc2ccccc21 (centres undefined) | – | inconclusive: 3.98 µM [activator, full curve, poor fit] | –
CCCCC1CCC(C(=O)Nc2ccccc2N2CCOCC2)CC1 (centres undefined) | inactive: -17.8% | – | –
Cc1cc(C)nc(NC(=S)NC(=O)c2ccccc2F)n1 | – | – | inactive
COC(=O)c1ccc(NCc2cc(O)ccc2O)cc1O | – | – | inactive
